43 molecules from PubChem BioAssay AID662 (National Center for Advancing Translational Sciences (NCATS), 2007) can be followed below.

This is one part of the list. Further columns of the screen follow, without active or inactive calls. Compounds called inactive in the main read-out are mostly missing here. Words in brackets tell the shape of the fitted curve; partial curves, single points and poor fits give uncertain potencies.

A short description of the assay: Cell signaling CRE-BLA (Fsk stim). Particulars: CHO CRE-bla reporter (cAMP response element driving beta-lactamase), forskolin EC10, beta-lactamase ratio; measured here: 460 nm blue channel. The method in brief: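 Beta-lactamase reporter under a cAMP responsive element in CHO cells; compounds tested in titration series against EC10 NKH 477, 3 h at 37 °C. Read-out: CCF4 FRET ratio 460nm/530nm (excitation 405nm) giving %Activity, fitted to AC50.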
For orientation: AC50 means the concentration giving half of the maximal activity seen. In the case of `N#Cc1ccc(OCC(=O)N2CCN(S(=O)(=O)c3cccs3)CC2)cc1`, the AC50 was 2.51 µM [rising, single point].

Consider `N/C(=N\c1nc2ccccc2o1)NC(=O)C(Cc1ccccc1)N1C(=O)c2ccccc2C1=O` (stereo not drawn), for which the AC50 was 12.6 µM [falling, partial curve].

`Cc1cc(C)c2cc(C#N)c(NCCCNC(=O)CCC(=O)O)nc2c1`: the AC50 was 3.98 µM [falling, single point].

As to `CCn1c(=O)c(C(=O)NCc2ccc(OC)cc2)c(O)c2ccccc21`, the AC50 was 1.58 µM [rising, partial curve].

For the molecule `CCOC(=O)N1CCN(C(=O)c2ccc(CNS(=O)(=O)c3ccc(C)cc3)cc2)CC1`, the AC50 was 25.1 µM [falling, single point].

On to `CCOc1ccc2[nH]c(=O)c(CN(CC3CCCN3CC)C(=O)NCc3ccccc3)cc2c1` (stereo not drawn), for which the AC50 was 3.16 µM [rising, single point].

Consider `O=C(NCc1cccs1)C1CCCN(S(=O)(=O)c2cccs2)C1` (stereo not drawn), for which the AC50 is 0.158 µM [falling, full curve].

With `COC(=O)c1cc(Br)c(=O)n(CCN2CCOCC2)c1`, the AC50 was 25.1 µM [rising, single point].

Consider `COc1cccc(Nc2ncc3nc(-c4ccc(F)cc4)c(=O)n(C)c3n2)c1`, for which the AC50 was 2.51 µM [rising, full curve].

As for `O=C(CCC1COc2ccccc2O1)Nc1ccccn1` (stereo not drawn), the AC50 is 10 µM [rising, partial curve].

On to `COc1ccc(CCNS(=O)(=O)c2cccc3nsnc23)cc1OC`, for which the AC50 is 25.1 µM [rising, single point].

On to `COc1ccc(-n2c(=O)c(-c3cccs3)nc3cnc(N4CCOCC4)nc32)cc1`, for which the concentration at half-maximal activity (AC50) is 5.01 µM [rising, partial curve].

Consider `COc1ccc(OC)c(-c2cc(C(=O)N3CCN(c4ncccn4)CC3)c3ccccc3n2)c1`, for which the concentration at half-maximal activity (AC50) was 10 µM [rising, single point].

Turning to `Cc1cnc(NC(=O)CCCSc2nc3ccccc3s2)s1`, the AC50 is 7.94 µM [rising, partial curve, poor fit].

On to `O=C(CCCc1nc2ccccc2s1)N1CCN(S(=O)(=O)c2cccs2)CC1`, for which the AC50 is 10 µM [rising, single point].

Turning to `COc1ncc2nc(-c3cccs3)c(=O)n(-c3ccccc3)c2n1`, the AC50 was 5.01 µM [rising, partial curve].

As to `COc1ccc(C(=O)NCCSCc2ccco2)cc1OC`, the AC50 was 0.00316 µM [falling, full curve, poor fit].

In the case of `COc1cccc(C(CC(=O)NCc2ccco2)NS(=O)(=O)c2ccc(C)cc2)c1OC` (stereo not drawn), the half-maximal activity concentration (AC50) was 3.98 µM [falling, partial curve].

For the molecule `COc1ccc2nc(SCC(=O)N3CCCCCC3)c(C#N)cc2c1`, the AC50 is 10 µM [rising, single point].

In the case of `O=C(NCC1COc2ccccc2O1)c1c[nH]c2ccc(S(=O)(=O)N3CCOCC3)cc2c1=O` (stereo not drawn), the AC50 was 3.16 µM [rising, single point].

For the molecule `O=C(Nc1ccc2c(c1)OCO2)C1CCCN(S(=O)(=O)Cc2ccccc2)C1` (stereo not drawn), the AC50 is 20 µM [falling, single point].

On to `COc1cc(C(=O)OCC(=O)N(C)Cc2ccccc2)cc(OC)c1OC`, for which the half-maximal activity concentration (AC50) is 3.98 µM [rising, single point].

For `CCCSc1nc2c(cnn2-c2ccc(Cl)cc2)c(=O)[nH]1`, the half-maximal activity concentration (AC50) is 0.00794 µM [falling, full curve, poor fit].

In the case of `Brc1ccccc1-c1nnc(COc2ncnc3c2cnn3-c2ccccc2)o1`, the AC50 was 12.6 µM [rising, single point].

With `N#Cc1ccc(COc2ccc(CCO)cc2-n2nc3ccccc3n2)cc1`, the half-maximal activity concentration (AC50) was 7.94 µM [rising, partial curve].

For `c1ccc2c(-c3nc4ncccc4o3)cccc2c1`, the AC50 is 25.1 µM [rising, single point].

With `Cc1cc(NC2C3CC4CC(C3)CC2C4)n2ncnc2n1` (stereo not drawn), the AC50 is 3.98 µM [rising, full curve].

In the case of `Cc1c(C2CCN(CCc3ccccc3)CC2)noc1-c1ccc(Cl)cc1`, the AC50 is 12.6 µM [falling, partial curve, poor fit].

`Cc1ccc(CNC(=O)[C@H](C)[C@H]2C[C@]2(C)[C@H](NC(=O)OCc2ccccc2)c2ccccc2)o1`: the AC50 was 12.6 µM [falling, single point].

On to `CCN1C(=O)C(O)(C2COC(C)(C)CC2=O)c2cc(Br)ccc21` (stereo not drawn), for which the concentration at half-maximal activity (AC50) is 12.6 µM [rising, single point].

Turning to `CCOC(=O)N1CCC(N2CCN(c3cc(C)ccc3C)CC2)CC1`, the AC50 is 0.00316 µM [falling, full curve, poor fit].

As for `CCCCOc1ccc(-c2nc(-c3cccnc3)no2)cc1`, the AC50 is 0.316 µM [falling, partial curve].

On to `Cc1sc2nc(C(C)Nc3ccccc3N3CCOCC3)[nH]c(=O)c2c1C` (stereo not drawn), for which the AC50 is 7.94 µM [rising, partial curve].

As to `Cn1c(SCc2ccccc2)nnc1-c1ccncc1`, the AC50 is 25.1 µM [falling, single point].

`CCOC(=O)c1c(CC(C)C)csc1NC=O`: the AC50 was 10 µM [rising, partial curve].

Consider `Cn1cc(C(=O)c2ccccc2)cc1-c1nc2ccccc2n1C`, for which the AC50 is 12.6 µM [rising, partial curve].

Take `COc1cc(-c2nnc3sc(-c4cccs4)nn23)cc(OC)c1OC`: the AC50 is 3.16 µM [rising, partial curve].

Take `C=CCn1cc(C(=O)NCc2ccco2)c(=O)c2cc(S(=O)(=O)N3CCCCCC3)ccc21`: the AC50 is 2.51 µM [rising, partial curve].

Turning to `CCc1c(C(=O)NCCc2ccc(OC)c(OC)c2)[nH]c(C)c1C(C)=O`, the concentration at half-maximal activity (AC50) was 6.31 µM [rising, partial curve].

For the molecule `Cc1nnc(Nc2ccc3c(c2)OCO3)c2ccccc12`, the AC50 was 0.631 µM [falling, full curve, poor fit].

For the molecule `Cc1noc(C)c1-c1cncnc1NCc1ccccc1`, the concentration at half-maximal activity (AC50) was 3.98 µM [rising, single point].

Take `c1cncc(-c2cc(NCc3cccs3)ncn2)c1`: the AC50 is 12.6 µM [rising, partial curve].

For the molecule `CCOC(=O)c1[nH]c(C)c(C(=O)OCC(=O)NC(=O)NC(C)(C)C)c1C`, the AC50 was 0.501 µM [falling, partial curve].
